According to paper PMC3749959:
These are yes or no findings as the source states them, for the method shown. In cells and extracts the contact can be indirect. Some results given as binding are weak or reduced against the parent protein; the word gives no strength.

Protein sequences, listed by entry. Tags and fused reporters are not part of them.
UniProt P19525: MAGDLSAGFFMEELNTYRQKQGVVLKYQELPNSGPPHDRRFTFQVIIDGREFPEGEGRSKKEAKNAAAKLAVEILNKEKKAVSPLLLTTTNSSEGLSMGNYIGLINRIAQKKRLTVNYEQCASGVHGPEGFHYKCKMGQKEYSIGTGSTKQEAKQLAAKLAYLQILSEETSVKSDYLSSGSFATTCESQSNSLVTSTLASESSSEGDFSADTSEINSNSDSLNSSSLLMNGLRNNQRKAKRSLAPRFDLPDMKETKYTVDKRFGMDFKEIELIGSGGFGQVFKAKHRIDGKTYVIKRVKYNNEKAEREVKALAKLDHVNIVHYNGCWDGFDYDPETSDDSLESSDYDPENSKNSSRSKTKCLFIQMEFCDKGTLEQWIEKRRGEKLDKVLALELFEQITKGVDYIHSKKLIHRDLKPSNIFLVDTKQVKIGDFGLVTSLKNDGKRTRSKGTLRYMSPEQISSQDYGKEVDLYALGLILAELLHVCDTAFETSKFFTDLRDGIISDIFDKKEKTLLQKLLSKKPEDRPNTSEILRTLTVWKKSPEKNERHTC

Legend:
[1] = target: T1, TRAF6 (mouse (endogenous in RAW 264.7)) (UniProt P70196); assay: co-IP; lysates of WT hmCD40-RAW 264.7 cells (transfected with FLAG-tagged WT-PKR or untransfected), incubated with or without CD154 for 30 min; in certain experiments control or TRAF2 siRNA beforehand; immunoprecipitation with anti-FLAG, anti-TRAF2 C20 or anti-TRAF6 D-10 antibody overnight at 4°C, protein G beads, immunoblot for TRAF2, TRAF6 or FLAG
T1 sequence: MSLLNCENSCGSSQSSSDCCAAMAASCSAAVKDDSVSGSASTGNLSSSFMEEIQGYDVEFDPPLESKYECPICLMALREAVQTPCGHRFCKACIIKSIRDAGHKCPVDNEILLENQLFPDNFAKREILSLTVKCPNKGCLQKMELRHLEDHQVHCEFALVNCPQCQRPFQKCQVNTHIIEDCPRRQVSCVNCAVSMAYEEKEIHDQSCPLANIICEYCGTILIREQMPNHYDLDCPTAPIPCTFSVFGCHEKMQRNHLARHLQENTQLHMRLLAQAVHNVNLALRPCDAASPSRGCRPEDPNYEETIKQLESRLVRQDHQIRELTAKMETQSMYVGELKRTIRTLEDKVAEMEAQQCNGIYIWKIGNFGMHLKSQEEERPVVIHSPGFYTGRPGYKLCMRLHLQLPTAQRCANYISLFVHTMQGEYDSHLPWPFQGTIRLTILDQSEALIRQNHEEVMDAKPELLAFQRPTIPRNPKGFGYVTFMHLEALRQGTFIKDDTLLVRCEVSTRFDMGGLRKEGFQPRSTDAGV

[2] = target: FLAG-tagged wild-type (WT)-PKR (UniProt P19525); assay: as above

B1: TRAF2 (protein, UniProt P39429 1-501)
chain: MAAASVTSPGSLELLQPGFSKTLLGTRLEAKYLCSACKNILRRPFQAQCGHRYCSFCLTSILSSGPQNCAACVYEGLYEEGISILESSSAFPDNAARREVESLPAVCPNDGCTWKGTLKEYESCHEGLCPFLLTECPACKGLVRLSEKEHHTEQECPKRSLSCQHCRAPCSHVDLEVHYEVCPKFPLTCDGCGKKKIPRETFQDHVRACSKCRVLCRFHTVGCSEMVETENLQDHELQRLREHLALLLSSFLEAQASPGTLNQVGPELLQRCQILEQKIATFENIVCVLNREVERVAVTAEACSRQHRLDQDKIEALSNKVQQLERSIGLKDLAMADLEQKVSELEVSTYDGVFIWKISDFTRKRQEAVAGRTPAIFSPAFYTSRYGYKMCLRVYLNGDGTGRGTHLSLFFVVMKGPNDALLQWPFNQKVTLMLLDHNNREHVIDAFRPDVTSSSFQRPVSDMNIASGCPLFCPVSKMEAKNSYVRDDAIFIKAIVDLTGL
binding [1]: binds
binding [2]: binds
